Measured values as given in article PMC10742089.
These are yes or no findings as the source states them, for the method shown. In cells and extracts the contact can be indirect. These calls come from enrichment with a bait or labelling near it, and not all partners need be listed. Blank lines part the entries; values can stand above or below the binder they belong to.

Assays:
[1] = molecular target: mEGFP-iso6 (FMRP nuclear isoform iso6 fused to GFP) (human) (UniProt Q06787); assay: affinity purification with mass spectrometry; stringent conditions: GFP-Trap on whole-cell lysate of U2OS stably expressing GFP-iso6 or GFP-iso1, half the number of cells of the first screen, 6 GFP-free U2OS controls, <=1% FDR; cells mock-treated or treated with aphidicolin (APH) for 24 h
[2] = molecular target: mEGFP-iso6 (FMRP nuclear isoform iso6 fused to GFP) (human) (UniProt Q06787); assay: affinity purification with mass spectrometry; first screen (mild stringency): GFP-Trap magnetic agarose on whole-cell lysate of U2OS stably expressing GFP-iso6, lysate treated with turbonuclease, 2 h at 4 C; LC-MS/MS; SAINTexpress against 2 GFP-free U2OS controls, <1% FDR and fold change >1.5

- binding [1]: binds
- binding [2]: binds
B1: CPSF1 (protein, UniProt Q10570 1-1443)
chain: MYAVYKQAHPPTGLEFSMYCNFFNNSERNLVVAGTSQLYVYRLNRDAEALTKNDRSTEGKAHREKLELAASFSFFGNVMSMASVQLAGAKRDALLLSFKDAKLSVVEYDPGTHDLKTLSLHYFEEPELRDGFVQNVHTPRVRVDPDGRCAAMLVYGTRLVVLPFRRESLAEEHEGLVGEGQRSSFLPSYIIDVRALDEKLLNIIDLQFLHGYYEPTLLILFEPNQTWPGRVAVRQDTCSIVAISLNITQKVHPVIWSLTSLPFDCTQALAVPKPIGGVVVFAVNSLLYLNQSVPPYGVALNSLTTGTTAFPLRTQEGVRITLDCAQATFISYDKMVISLKGGEIYVLTLITDGMRSVRAFHFDKAAASVLTTSMVTMEPGYLFLGSRLGNSLLLKYTEKLQEPPASAVREAADKEEPPSKKKRVDATAGWSAAGKSVPQDEVDEIEVYGSEAQSGTQLATYSFEVCDSILNIGPCANAAVGEPAFLSEEFQNSPEPDLEIVVCSGHGKNGALSVLQKSIRPQVVTTFELPGCYDMWTVIAPVRKEEEDNPKGEGTEQEPSTTPEADDDGRRHGFLILSREDSTMILQTGQEIMELDTSGFATQGPTVFAGNIGDNRYIVQVSPLGIRLLEGVNQLHFIPVDLGAPIVQCAVADPYVVIMSAEGHVTMFLLKSDSYGGRHHRLALHKPPLHHQSKVITLCLYRDLSGMFTTESRLGGARDELGGRSGPEAEGLGSETSPTVDDEEEMLYGDSGSLFSPSKEEARRSSQPPADRDPAPFRAEPTHWCLLVRENGTMEIYQLPDWRLVFLVKNFPVGQRVLVDSSFGQPTTQGEARREEATRQGELPLVKEVLLVALGSRQSRPYLLVHVDQELLIYEAFPHDSQLGQGNLKVRFKKVPHNINFREKKPKPSKKKAEGGGAEEGAGARGRVARFRYFEDIYGYSGVFICGPSPHWLLVTGRGALRLHPMAIDGPVDSFAPFHNVNCPRGFLYFNRQGELRISVLPAYLSYDAPWPVRKIPLRCTAHYVAYHVESKVYAVATSTNTPCARIPRMTGEEKEFETIERDERYIHPQQEAFSIQLISPVSWEAIPNARIELQEWEHVTCMKTVSLRSEETVSGLKGYVAAGTCLMQGEEVTCRGRILIMDVIEVVPEPGQPLTKNKFKVLYEKEQKGPVTALCHCNGHLVSAIGQKIFLWSLRASELTGMAFIDTQLYIHQMISVKNFILAADVMKSISLLRYQEESKTLSLVSRDAKPLEVYSVDFMVDNAQLGFLVSDRDRNLMVYMYLPEAKESFGGMRLLRRADFHVGAHVNTFWRTPCRGATEGLSKKSVVWENKHITWFATLDGGIGLLLPMQEKTYRRLLMLQNALTTMLPHHAGLNPRAFRMLHVDRRTLQNAVRNVLDGELLNRYLYLSTMERSELAKKIGTTPDIILDDLLETDRVTAHF

- binding [1]: binds
- binding [2]: binds
B2: WDR3 (protein, UniProt Q9UNX4 1-943)
chain: MGLTKQYLRYVASAVFGVIGSQKGNIVFVTLRGEKGRYVAVPACEHVFIWDLRKGEKILILQGLKQEVTCLCPSPDGLHLAVGYEDGSIRIFSLLSGEGNVTFNGHKAAITTLKYDQLGGRLASGSKDTDIIVWDVINESGLYRLKGHKDAITQALFLREKNLLVTSGKDTMVKWWDLDTQHCFKTMVGHRTEVWGLVLLSEEKRLITGASDSELRVWDIAYLQEIEDPEEPDPKKIKGSSPGIQDTLEAEDGAFETDEAPEDRILSCRKAGSIMREGRDRVVNLAVDKTGRILACHGTDSVLELFCILSKKEIQKKMDKKMKKARKKAKLHSSKGEEEDPEVNVEMSLQDEIQRVTNIKTSAKIKSFDLIHSPHGELKAVFLLQNNLVELYSLNPSLPTPQPVRTSRITIGGHRSDVRTLSFSSDNIAVLSAAADSIKIWNRSTLQCIRTMTCEYALCSFFVPGDRQVVIGTKTGKLQLYDLASGNLLETIDAHDGALWSMSLSPDQRGFVTGGADKSVKFWDFELVKDENSTQKRLSVKQTRTLQLDEDVLCVSYSPNQKLLAVSLLDCTVKIFYVDTLKFFLSLYGHKLPVICMDISHDGALIATGSADRNVKIWGLDFGDCHKSLFAHDDSVMYLQFVPKSHLFFTAGKDHKIKQWDADKFEHIQTLEGHHQEIWCLAVSPSGDYVVSSSHDKSLRLWERTREPLILEEEREMEREAEYEESVAKEDQPAVPGETQGDSYFTGKKTIETVKAAERIMEAIELYREETAKMKEHKAICKAAGKEVPLPSNPILMAYGSISPSAYVLEIFKGIKSSELEESLLVLPFSYVPDILKLFNEFIQLGSDVELICRCLFFLLRIHFGQITSNQMLVPVIEKLRETTISKVSQVRDVIGFNMAGLDYLKRECEAKSEVMFFADATSHLEEKKRKRKKREKLILTLT
